Data on two substances can be found in article PMC9882653.

Sequences of proteins named here, by UniProt entry; tags and fusion partners are left off.
UniProt Q9QUR7: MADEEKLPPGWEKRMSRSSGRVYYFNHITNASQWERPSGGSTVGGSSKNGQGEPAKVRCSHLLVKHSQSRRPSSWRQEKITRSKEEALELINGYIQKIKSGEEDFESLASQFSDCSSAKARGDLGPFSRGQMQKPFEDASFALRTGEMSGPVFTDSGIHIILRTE
UniProt Q9UM11: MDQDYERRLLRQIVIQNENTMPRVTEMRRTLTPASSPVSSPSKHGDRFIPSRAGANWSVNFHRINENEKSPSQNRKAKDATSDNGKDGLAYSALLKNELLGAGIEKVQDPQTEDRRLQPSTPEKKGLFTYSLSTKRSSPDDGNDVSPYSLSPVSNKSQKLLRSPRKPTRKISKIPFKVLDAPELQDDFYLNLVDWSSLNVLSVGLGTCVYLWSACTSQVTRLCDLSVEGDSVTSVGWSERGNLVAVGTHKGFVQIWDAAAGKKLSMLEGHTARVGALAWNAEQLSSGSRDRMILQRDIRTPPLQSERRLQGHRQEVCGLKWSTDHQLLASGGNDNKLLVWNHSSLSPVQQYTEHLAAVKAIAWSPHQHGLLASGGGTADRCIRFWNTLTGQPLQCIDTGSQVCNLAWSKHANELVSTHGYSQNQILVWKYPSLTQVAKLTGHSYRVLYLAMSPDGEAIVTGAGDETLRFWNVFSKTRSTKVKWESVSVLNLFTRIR
UniProt Q9R1K5: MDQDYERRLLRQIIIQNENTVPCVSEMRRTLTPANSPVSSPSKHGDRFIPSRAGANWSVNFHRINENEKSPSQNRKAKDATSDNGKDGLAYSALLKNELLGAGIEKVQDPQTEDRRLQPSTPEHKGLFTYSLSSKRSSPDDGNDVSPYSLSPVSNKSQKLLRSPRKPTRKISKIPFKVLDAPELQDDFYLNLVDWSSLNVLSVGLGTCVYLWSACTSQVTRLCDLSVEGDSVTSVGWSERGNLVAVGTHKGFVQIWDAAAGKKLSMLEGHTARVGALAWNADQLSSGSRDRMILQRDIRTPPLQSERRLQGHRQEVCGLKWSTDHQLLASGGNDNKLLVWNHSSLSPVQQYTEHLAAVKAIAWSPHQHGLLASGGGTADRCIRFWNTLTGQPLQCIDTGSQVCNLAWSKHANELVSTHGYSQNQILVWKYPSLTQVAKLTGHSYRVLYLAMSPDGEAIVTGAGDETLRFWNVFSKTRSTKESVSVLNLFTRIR

In test [1] the target is endogenous CDK4 (human (endogenous in MDA-MB-231 and MCF-7)) (UniProt P11802). Description: co-IP; endogenous proteins; MDA-MB-231 and MCF-7 cells treated with 1 uM Palbociclib for 24 hrs, precipitated with IgG or anti-CDK4 antibodies.
For test [2], the target named is Pin1 (mouse tumors) (mouse (endogenous in K14cre; p53wt/f; Brca1wt/f tumors)) (UniProt Q9QUR7). Description: co-IP; K14cre; p53wt/f; Brca1wt/f mouse tumors, pulled down by anti-Pin1 or anti-Cdk4 antibody.
Test [3] has as its target T1, Cdk4 (mouse tumors) (mouse (endogenous in K14cre; p53wt/f; Brca1wt/f tumors)) (UniProt P30285).
T1 sequence: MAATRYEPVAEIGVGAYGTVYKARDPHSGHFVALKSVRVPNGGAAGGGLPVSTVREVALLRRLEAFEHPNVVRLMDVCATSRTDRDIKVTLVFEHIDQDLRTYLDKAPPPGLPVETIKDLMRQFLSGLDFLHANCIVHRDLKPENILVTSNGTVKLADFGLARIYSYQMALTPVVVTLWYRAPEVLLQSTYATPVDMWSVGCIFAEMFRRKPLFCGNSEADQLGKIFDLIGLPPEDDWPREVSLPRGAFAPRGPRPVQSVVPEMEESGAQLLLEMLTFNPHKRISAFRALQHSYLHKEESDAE
The description is as above.

No constants are given. Whether binding was seen depends on the method and setting. In cells and extracts the contact can be indirect. Some entries that bind do so weakly or less than the wild type.

For the substance “endogenous CDH1 (from UniProt Q9UM11 1-496)”, in test [1], the binding entry is given as “binds”. Turning to “Cdh1 (mouse tumors) (from UniProt Q9R1K5 1-493)”, the binding entry in test [2] and in test [3] was “binds” throughout.
